Measurements from article PMC11674332.
Results are given in words; binding and its absence hold for the method and conditions named.

Target: T1, human gamma S crystallin (human), P22914
T1 chain: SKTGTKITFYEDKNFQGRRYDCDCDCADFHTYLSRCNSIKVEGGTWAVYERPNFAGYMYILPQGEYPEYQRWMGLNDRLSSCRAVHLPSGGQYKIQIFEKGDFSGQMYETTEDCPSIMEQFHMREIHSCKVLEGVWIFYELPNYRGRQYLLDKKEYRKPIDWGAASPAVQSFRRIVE
Test: dynamic light scattering; 50 μM protein, 37 °C, no metal ions; samples centrifuged and passed through a 0.22 μm filter before measurement; both purified
Settings: remark: other sources report otherwise

binding: no binding (tested: 50 μM)
B1: human gamma S crystallin, P22914 2-178 (protein)
chain: T1 chain
